Measurements taken from publication PMC11358020.
These are yes or no findings as the source states them, for the method shown. Binding seen in cells or lysates may run through a third protein. Some binding calls cover weakened binding; strength is not graded here.

The chains behind the UniProt entries cited, without tags or fusion partners.
UniProt Q96L96: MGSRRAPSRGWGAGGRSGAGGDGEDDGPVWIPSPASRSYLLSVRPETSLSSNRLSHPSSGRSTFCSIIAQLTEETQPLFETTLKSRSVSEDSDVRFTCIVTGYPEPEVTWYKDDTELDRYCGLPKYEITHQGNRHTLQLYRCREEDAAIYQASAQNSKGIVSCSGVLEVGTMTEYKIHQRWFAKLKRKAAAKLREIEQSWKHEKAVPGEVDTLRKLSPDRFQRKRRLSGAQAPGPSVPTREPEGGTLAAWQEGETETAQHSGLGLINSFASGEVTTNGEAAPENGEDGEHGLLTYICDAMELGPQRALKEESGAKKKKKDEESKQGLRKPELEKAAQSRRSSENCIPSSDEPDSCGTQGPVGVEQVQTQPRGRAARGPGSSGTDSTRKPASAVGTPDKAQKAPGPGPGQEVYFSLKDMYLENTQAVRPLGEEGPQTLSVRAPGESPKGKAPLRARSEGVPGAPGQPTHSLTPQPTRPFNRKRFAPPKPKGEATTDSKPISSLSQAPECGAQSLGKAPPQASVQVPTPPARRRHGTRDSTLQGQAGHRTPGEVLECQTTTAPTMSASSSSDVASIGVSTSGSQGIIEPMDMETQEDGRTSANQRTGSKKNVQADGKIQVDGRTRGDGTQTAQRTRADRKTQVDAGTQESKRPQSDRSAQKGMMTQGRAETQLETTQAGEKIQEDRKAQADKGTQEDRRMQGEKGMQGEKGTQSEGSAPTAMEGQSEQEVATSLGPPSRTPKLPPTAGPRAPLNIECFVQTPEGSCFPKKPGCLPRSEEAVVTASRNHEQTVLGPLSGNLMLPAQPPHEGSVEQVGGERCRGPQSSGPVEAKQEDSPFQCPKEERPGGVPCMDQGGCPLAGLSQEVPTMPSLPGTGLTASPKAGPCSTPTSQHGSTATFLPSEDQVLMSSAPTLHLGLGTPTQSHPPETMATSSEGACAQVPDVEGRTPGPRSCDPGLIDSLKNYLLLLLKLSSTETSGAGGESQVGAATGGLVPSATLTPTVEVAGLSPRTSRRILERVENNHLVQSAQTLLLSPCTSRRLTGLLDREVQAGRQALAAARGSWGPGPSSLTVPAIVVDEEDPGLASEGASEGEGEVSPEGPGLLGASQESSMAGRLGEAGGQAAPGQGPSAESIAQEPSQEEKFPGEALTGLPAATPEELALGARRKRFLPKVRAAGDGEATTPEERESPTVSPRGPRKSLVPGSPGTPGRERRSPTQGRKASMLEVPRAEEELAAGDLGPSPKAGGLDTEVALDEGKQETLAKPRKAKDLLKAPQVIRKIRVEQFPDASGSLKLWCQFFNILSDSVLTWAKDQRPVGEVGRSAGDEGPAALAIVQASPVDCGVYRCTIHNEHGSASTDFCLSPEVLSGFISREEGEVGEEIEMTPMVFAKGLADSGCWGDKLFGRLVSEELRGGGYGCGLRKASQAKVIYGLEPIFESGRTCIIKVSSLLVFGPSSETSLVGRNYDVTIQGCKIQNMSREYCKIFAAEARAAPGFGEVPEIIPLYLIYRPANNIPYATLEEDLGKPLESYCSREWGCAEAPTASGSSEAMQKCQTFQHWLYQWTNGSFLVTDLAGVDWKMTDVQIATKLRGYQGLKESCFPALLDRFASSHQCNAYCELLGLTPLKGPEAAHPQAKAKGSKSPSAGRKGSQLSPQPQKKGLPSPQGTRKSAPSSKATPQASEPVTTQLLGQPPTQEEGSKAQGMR

Target: sequestosome-1 (SQSTM1), endogenous (human (endogenous in hPSC-derived cardiomyocytes)) (UniProt Q13501)
Assay: co-IP; reverse co-IP: 2 mg lysate of metabolically purified ALPK3–SBP3×FLAG hPSC CMs immunoprecipitated 3 h at 4 °C with anti-SQSTM1 antibody, Protein G Dynabeads; western blot with anti-FLAG M2 or anti-SQSTM1

binding: binds
Substance: ALPK3–SBP3×FLAG (endogenous alpha kinase 3 with a C-terminal streptavidin-binding peptide 3×FLAG tag) (from UniProt Q96L96 1-1705)
